Measurements reported in PubChem BioAssay AID1224830 (NIAID, 2016).
Here is a random part of about 18,000 deposited reagents. About 2,900 of them (16%) count as active. 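Calls are made per well; low scores hint the gene aids the LPS response, high scores that it dampens it.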 A number with no mark means an inactive call. Repeated entries: four replicate wells of each siRNA pool.

- Test: 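Genes whose knock-down alters the TNF-alpha reporter response to LPS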 (primary screen)
- Cell system: human THP-1 monocytic leukaemia cells, TNF dual-luciferase reporter clone, PMA-differentiated to macrophage-like cells
- Reagents: siRNA pool against human genes, 50 nM
- Timing: LPS for 4 h, given about 3 days after siRNA transfection
- Treatment: bacterial LPS (TLR4 ligand), 10 ng/ml
- Read-out: 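Ratio of firefly to renilla light, scaled to the plate median and expressed as a robust z-score per replicate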
- Scale: TNF reporter robust z-score: higher = stronger TNF reporter response to LPS
- Call rule: 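a well is active when its z-score exceeds 2.8 or falls below -1.5; control wells carry no call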

gene	TNF reporter robust z-score
TMCO4 (transmembrane and coiled-coil domains 4)	0.59
TMCO4 (transmembrane and coiled-coil domains 4)	0.92
TMCO4 (transmembrane and coiled-coil domains 4)	-0.42
TMCO4 (transmembrane and coiled-coil domains 4)	-0.07
KRT6A (keratin 6A)	1.14
KRT6A (keratin 6A)	0.75
KRT6A (keratin 6A)	0.1
KRT6A (keratin 6A)	0.6
PPP1R15A (protein phosphatase 1 regulatory subunit 15A)	-0.15
PPP1R15A (protein phosphatase 1 regulatory subunit 15A)	0.13
PPP1R15A (protein phosphatase 1 regulatory subunit 15A)	-0.02
ZNF23 (zinc finger protein 23)	1.09
ZNF23 (zinc finger protein 23)	1.68
ZNF23 (zinc finger protein 23)	1.51
ZNF23 (zinc finger protein 23)	2.22
GLTPD2 (glycolipid transfer protein domain containing 2)	1.21
GLTPD2 (glycolipid transfer protein domain containing 2)	1.34
GLTPD2 (glycolipid transfer protein domain containing 2)	1.61
GLTPD2 (glycolipid transfer protein domain containing 2)	0.65
HADHA	-0.45
HADHA	-0.89
HADHA	-0.81
HADHA	-1
ERLIN1 (ER lipid raft associated 1)	0.91
ERLIN1 (ER lipid raft associated 1)	2.08
ERLIN1 (ER lipid raft associated 1)	0.14
ERLIN1 (ER lipid raft associated 1)	1.52
WDR48 (WD repeat domain 48)	-0.08
WDR48 (WD repeat domain 48)	-0.04
WDR48 (WD repeat domain 48)	1.27
WDR48 (WD repeat domain 48)	1.17
PPM1K (protein phosphatase, Mg2+/Mn2+ dependent 1K)	-0.04
PPM1K (protein phosphatase, Mg2+/Mn2+ dependent 1K)	-0.5
PPM1K (protein phosphatase, Mg2+/Mn2+ dependent 1K)	-1.2
PPM1K (protein phosphatase, Mg2+/Mn2+ dependent 1K)	0.07
GPR155 (G protein-coupled receptor 155)	0.76
GPR155 (G protein-coupled receptor 155)	1.04
GPR155 (G protein-coupled receptor 155)	0.36
GPR155 (G protein-coupled receptor 155)	1.81
FAM187B (family with sequence similarity 187 member B)	0.65
FAM187B (family with sequence similarity 187 member B)	0.93
FAM187B (family with sequence similarity 187 member B)	0.09
FAM187B (family with sequence similarity 187 member B)	1.99
FOXO3 (forkhead box O3)	0.72
FOXO3 (forkhead box O3)	1.19
FOXO3 (forkhead box O3)	1.63
FOXO3 (forkhead box O3)	1.6
CBX4 (chromobox 4)	0.16
CBX4 (chromobox 4)	0.83
CBX4 (chromobox 4)	1.26
CBX4 (chromobox 4)	0.89
PSMD6 (proteasome 26S subunit, non-ATPase 6)	-1.61 (active)
PSMD6 (proteasome 26S subunit, non-ATPase 6)	-1.52 (active)
PSMD6 (proteasome 26S subunit, non-ATPase 6)	-0.75
PSMD6 (proteasome 26S subunit, non-ATPase 6)	-0.38
HTR1F (5-hydroxytryptamine receptor 1F)	-0.72
HTR1F (5-hydroxytryptamine receptor 1F)	-0.27
HTR1F (5-hydroxytryptamine receptor 1F)	-0.79
HTR1F (5-hydroxytryptamine receptor 1F)	-0.45
SEC31B (SEC31 homolog B, COPII component)	-1.29
SEC31B (SEC31 homolog B, COPII component)	-0.65
SEC31B (SEC31 homolog B, COPII component)	-1.25
SEC31B (SEC31 homolog B, COPII component)	-1.32
GON7 (GON7 subunit of KEOPS complex)	0.04
GON7 (GON7 subunit of KEOPS complex)	1.95
GON7 (GON7 subunit of KEOPS complex)	0.92
GON7 (GON7 subunit of KEOPS complex)	0.91
TKTL1 (transketolase like 1)	-0.64
TKTL1 (transketolase like 1)	-0.12
TKTL1 (transketolase like 1)	-0.8
TKTL1 (transketolase like 1)	-0.48
FMNL1 (formin like 1)	-0.81
FMNL1 (formin like 1)	-0.39
FMNL1 (formin like 1)	-0.96
FMNL1 (formin like 1)	-0.18

Targets listed so far whose target name starts with S or s (4):
gene	TNF reporter robust z-score
SEC31B (SEC31 homolog B, COPII component)	-1.29
SEC31B (SEC31 homolog B, COPII component)	-0.65
SEC31B (SEC31 homolog B, COPII component)	-1.25
SEC31B (SEC31 homolog B, COPII component)	-1.32
